Assay results: the supplement of paper PMC10849652
Some of the results follow.

Chains of the proteins cited; added tags and fusions are not shown. Lines headed by an entry give the natural chain unless they say otherwise; changes in a name come on top.
UniProt O43166: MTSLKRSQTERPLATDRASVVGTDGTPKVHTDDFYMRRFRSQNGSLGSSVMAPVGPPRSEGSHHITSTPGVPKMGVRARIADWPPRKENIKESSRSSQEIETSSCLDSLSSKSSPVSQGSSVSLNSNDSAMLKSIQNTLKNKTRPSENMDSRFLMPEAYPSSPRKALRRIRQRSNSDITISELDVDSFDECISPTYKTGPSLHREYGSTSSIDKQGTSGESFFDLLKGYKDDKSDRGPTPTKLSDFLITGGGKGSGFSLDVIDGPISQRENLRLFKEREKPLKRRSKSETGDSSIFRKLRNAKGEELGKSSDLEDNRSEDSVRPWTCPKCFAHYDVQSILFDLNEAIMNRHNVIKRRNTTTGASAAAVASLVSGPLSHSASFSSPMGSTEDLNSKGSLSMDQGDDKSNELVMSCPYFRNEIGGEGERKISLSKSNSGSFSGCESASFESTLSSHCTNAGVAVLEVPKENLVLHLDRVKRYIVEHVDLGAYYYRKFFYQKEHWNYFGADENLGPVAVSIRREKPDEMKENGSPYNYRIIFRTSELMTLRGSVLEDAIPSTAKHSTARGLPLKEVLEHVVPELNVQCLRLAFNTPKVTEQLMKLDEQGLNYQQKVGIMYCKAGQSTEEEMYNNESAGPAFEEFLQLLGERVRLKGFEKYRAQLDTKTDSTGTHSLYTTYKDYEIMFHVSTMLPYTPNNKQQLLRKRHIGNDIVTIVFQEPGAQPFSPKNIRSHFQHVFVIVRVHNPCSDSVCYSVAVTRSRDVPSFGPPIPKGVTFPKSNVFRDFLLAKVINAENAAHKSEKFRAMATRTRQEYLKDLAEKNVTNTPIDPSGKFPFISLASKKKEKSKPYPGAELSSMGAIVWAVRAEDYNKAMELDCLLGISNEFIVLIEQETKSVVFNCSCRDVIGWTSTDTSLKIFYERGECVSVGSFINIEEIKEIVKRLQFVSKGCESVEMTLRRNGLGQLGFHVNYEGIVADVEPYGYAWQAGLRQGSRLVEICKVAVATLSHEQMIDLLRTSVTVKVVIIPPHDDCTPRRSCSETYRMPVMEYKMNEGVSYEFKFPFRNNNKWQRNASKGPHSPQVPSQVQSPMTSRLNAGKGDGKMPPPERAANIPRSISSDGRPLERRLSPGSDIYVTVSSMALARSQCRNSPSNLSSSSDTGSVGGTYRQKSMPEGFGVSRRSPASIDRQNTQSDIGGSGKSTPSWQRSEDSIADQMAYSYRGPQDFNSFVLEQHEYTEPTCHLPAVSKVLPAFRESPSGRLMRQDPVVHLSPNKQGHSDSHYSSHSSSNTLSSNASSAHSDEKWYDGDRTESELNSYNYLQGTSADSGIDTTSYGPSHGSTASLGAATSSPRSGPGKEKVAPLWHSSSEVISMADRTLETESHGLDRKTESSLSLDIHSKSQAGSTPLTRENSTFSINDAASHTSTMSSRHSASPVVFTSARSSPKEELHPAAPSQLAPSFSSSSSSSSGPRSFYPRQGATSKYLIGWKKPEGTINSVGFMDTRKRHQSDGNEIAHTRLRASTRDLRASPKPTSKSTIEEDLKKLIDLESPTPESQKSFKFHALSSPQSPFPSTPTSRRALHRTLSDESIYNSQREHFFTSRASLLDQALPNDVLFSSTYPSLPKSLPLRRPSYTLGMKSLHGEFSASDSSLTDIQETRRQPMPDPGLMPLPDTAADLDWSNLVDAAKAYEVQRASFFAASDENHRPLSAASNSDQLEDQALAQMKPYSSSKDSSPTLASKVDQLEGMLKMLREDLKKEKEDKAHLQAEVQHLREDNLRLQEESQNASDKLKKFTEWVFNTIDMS
UniProt Q8WVK7: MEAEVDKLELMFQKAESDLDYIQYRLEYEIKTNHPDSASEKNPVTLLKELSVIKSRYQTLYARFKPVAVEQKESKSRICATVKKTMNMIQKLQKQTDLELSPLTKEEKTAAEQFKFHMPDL
UniProt P49281: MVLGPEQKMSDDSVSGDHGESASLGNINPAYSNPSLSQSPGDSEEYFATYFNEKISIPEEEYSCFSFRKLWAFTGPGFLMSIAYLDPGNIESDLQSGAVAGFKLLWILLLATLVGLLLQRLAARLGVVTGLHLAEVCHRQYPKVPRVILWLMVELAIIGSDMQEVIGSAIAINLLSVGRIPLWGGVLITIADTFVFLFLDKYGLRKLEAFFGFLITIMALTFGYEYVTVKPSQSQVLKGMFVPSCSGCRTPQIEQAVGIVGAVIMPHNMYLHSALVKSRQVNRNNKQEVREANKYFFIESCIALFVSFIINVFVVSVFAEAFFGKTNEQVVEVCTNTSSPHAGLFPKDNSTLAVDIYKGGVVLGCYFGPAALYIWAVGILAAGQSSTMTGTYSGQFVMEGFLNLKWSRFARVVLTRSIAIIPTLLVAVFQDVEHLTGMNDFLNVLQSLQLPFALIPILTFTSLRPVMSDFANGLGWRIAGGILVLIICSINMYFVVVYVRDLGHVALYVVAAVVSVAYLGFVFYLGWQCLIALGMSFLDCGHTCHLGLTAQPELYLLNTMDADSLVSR
UniProt P43007: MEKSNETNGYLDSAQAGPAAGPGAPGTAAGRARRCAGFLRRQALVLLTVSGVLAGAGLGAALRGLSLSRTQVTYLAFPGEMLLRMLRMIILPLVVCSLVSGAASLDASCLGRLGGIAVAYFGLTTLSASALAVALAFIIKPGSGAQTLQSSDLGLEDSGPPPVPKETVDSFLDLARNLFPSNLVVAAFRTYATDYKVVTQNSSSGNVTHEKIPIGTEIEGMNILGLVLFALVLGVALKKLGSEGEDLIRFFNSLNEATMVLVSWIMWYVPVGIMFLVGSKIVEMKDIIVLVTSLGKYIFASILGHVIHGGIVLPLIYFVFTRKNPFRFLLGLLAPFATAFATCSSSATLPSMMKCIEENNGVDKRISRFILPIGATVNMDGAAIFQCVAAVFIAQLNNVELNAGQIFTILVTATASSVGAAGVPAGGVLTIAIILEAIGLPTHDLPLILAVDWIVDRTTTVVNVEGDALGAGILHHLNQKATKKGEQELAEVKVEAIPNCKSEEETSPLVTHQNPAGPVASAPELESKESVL
UniProt P34896: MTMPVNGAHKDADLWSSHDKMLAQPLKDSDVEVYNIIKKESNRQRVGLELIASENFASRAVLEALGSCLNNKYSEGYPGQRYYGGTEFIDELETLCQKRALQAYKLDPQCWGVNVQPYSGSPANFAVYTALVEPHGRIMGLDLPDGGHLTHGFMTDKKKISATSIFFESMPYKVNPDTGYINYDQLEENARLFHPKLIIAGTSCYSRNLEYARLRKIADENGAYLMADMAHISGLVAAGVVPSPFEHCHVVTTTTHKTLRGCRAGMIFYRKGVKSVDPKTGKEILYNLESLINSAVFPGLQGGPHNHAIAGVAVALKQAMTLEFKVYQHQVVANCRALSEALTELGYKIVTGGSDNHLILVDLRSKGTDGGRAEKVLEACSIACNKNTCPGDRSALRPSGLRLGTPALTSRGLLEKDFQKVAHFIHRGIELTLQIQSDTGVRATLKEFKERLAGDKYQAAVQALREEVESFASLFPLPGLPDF
UniProt P01008, whole entry, looked up: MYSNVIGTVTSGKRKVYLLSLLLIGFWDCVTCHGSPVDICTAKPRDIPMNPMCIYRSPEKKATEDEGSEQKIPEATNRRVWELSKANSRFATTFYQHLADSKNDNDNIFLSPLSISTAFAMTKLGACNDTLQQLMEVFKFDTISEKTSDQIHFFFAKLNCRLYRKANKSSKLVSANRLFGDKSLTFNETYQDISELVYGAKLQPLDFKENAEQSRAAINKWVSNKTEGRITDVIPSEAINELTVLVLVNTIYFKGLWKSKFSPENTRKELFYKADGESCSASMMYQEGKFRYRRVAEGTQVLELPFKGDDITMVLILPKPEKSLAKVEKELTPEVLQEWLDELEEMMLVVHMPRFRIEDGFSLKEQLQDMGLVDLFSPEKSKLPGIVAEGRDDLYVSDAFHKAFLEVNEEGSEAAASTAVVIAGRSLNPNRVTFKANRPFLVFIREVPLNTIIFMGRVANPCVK
UniProt Q5FBB7: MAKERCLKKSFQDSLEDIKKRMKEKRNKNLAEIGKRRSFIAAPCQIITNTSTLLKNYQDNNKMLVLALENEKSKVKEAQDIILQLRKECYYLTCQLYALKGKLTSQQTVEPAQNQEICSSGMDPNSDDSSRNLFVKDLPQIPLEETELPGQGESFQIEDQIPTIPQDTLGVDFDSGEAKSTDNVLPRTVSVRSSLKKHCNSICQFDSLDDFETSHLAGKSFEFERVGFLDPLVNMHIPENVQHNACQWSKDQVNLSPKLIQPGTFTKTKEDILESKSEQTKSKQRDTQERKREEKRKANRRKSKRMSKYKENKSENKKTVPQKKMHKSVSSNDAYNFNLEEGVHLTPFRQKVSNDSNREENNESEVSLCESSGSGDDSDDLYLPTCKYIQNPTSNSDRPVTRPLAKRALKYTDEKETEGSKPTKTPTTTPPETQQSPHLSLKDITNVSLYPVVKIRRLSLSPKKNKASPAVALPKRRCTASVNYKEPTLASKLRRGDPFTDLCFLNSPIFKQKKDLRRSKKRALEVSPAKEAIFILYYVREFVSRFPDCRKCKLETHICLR
UniProt O43765: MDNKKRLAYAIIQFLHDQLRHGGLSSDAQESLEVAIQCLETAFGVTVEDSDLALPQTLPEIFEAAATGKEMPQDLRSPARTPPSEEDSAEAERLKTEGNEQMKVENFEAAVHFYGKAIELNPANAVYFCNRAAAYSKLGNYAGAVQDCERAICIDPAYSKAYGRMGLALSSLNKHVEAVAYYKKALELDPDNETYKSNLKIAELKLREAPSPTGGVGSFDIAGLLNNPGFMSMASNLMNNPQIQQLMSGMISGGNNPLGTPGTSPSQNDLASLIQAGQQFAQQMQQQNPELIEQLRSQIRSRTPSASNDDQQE
UniProt Q99961: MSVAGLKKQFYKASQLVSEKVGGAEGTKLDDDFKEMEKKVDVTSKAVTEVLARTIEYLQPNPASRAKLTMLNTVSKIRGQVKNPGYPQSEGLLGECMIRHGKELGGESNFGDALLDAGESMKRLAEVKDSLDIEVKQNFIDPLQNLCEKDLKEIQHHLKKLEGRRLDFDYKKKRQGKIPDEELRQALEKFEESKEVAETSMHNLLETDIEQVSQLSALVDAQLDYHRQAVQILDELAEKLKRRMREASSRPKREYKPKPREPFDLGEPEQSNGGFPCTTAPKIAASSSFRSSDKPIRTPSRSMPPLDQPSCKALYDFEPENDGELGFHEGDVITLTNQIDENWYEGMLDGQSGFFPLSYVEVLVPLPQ
UniProt P55822: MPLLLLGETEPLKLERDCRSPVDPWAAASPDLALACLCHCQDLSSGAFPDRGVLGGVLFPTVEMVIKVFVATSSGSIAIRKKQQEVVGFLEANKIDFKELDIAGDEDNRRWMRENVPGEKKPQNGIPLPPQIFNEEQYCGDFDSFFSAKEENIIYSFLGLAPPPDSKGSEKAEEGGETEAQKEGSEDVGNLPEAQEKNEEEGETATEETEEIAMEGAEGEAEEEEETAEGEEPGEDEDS
UniProt Q6NT16: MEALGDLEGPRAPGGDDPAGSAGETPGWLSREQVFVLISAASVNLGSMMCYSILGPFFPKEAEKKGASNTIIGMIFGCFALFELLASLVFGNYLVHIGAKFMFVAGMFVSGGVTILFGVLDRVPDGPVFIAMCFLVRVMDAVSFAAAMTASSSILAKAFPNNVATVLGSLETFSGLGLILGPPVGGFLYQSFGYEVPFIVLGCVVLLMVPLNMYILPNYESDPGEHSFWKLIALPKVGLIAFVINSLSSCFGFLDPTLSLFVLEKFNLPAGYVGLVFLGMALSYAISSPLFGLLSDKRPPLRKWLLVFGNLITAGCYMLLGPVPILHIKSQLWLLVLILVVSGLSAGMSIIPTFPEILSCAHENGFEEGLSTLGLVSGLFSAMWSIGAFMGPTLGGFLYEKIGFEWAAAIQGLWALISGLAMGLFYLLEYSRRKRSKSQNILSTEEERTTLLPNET
UniProt Q8N697: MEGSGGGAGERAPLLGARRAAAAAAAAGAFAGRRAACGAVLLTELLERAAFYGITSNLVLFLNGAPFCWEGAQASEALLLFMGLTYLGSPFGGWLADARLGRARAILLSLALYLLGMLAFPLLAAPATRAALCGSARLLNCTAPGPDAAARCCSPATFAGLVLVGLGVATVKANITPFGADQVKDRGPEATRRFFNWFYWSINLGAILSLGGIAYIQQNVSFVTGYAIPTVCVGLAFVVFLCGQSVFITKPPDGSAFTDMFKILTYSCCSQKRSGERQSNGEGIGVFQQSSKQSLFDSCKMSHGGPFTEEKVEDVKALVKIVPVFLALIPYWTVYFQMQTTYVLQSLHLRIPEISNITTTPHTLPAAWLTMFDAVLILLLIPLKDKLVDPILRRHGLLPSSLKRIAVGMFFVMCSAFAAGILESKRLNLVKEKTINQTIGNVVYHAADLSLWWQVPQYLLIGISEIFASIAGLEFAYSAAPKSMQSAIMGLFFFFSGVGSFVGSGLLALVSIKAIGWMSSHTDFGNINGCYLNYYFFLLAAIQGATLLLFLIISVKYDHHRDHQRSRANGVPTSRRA

Key:
Assay in all cases: log2 fold change, soluble protein after heating vs DMSO (PISA); higher = thermal stabilisation; K562 lysate, 10 uM; active = over 0.2 and 3.5 SD of the protein, either way, in both replicates (recomputed)
erlotinib = compound: C#Cc1cccc(Nc2ncnc3cc(OCCOC)c(OCCOC)cc23)c1 [erlotinib]
Method in brief: (§1)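 K562 pellets were dounce-homogenised in PBS pH 7.4 with 1 mM MgCl2, and the crude extract at 1 mg/mL protein was treated with 10 μM compound for 30 min. Aliquots were heated for 3 min across 48°C-58°C, pooled, and brought to 0.5% NP-40 at 4°C; soluble protein was the supernatant after 21,000xg for 90 min. Soluble protein was quantified by TMTpro 16plex LC-MS/MS with channel sums equalised, and reported as log2 fold change in thermal stability against DMSO controls, with values from duplicates.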

[1] = compound: C/C(=N\NC(=O)C1=CC(=CC=C1)S(=O)(=O)N2CCOCC2)/C3=C(C=CC(=C3)Cl)O
Method in brief: as §1

[2] = compound: C1=CC(=CC=C1C2=NC3=C(N2)C=C(C=C3)C(=O)N)OC4=CC=C(C=C4)Cl
Method in brief: as §1

[3] = compound: C1=CC2=C(C=CC(=C2)/C=C\3/C(=O)NC(=NCC4=CC=CS4)S3)N=C1
Method in brief: as §1

[4] = compound: C1=CC2=NC=CN=C2C=C1/C=C/3\C(=O)NC(=O)S3
Method in brief: as §1

[5] = compound: C1=CC=C(C=C1)C2=NC(=C(N2)C3=CC=NC=C3)C4=CC(=C(C=C4)Cl)O
Method in brief: as §1

[6] = compound: C1=CC=C2C(=C1)C3=NNC4=CC=CC(=C43)C2=O
Method in brief: as §1

[7] = compound: C1CCN(C1)C(=O)NC2=CC=CC(=C2)NC3=NC=C(C(=N3)NCCC4=CN=CN4)Br
Method in brief: as §1

[8] = compound: C1CN(CCC1(CC2=CC=C(C=C2)Cl)N)C3=NC=NC4=C3C=CN4
Method in brief: as §1

IRAK-1-4 Inhibitor I = compound: C1COCCN1CCN2C3=CC=CC=C3N=C2NC(=O)C4=CC(=CC=C4)[N+](=O)[O-] [IRAK-1-4 Inhibitor I]
Method in brief: as §1

Measured: log2 fold change

SIPA1L1 (UniProt O43166)
inactive: erlotinib 0.02 | [1] -0.161 | [2] -0.001 | [3] -0.022 | [4] -0.043 | [5] -0.061 | [6] 0.021 | [7] 0.022 | [8] 0.058 | IRAK-1-4 Inhibitor I -0.052

SKA2 (UniProt Q8WVK7)
inactive: erlotinib -0.006 | [1] -0.058 | [2] 0.014 | [3] -0.011 | [4] -0.042 | [5] 0.001 | [6] -0.081 | [7] -0.006 | [8] -0.019 | IRAK-1-4 Inhibitor I -0.056

SGPL1 (UniProt O95470)
inactive: erlotinib -0.017 | [1] -0.112 | [2] -0.093 | [3] -0.062 | [4] -0.02 | [5] -0.003 | [6] -0.05 | [7] -0.051 | [8] -0.008 | IRAK-1-4 Inhibitor I 0.007

SLC11A2 isoform 3 (UniProt P49281)
inactive: erlotinib -0.005 | [1] -0.041 | [2] -0.009 | [3] -0.013 | [4] 0 | [5] 0.011 | [6] 0.046 | [7] -0.004 | [8] 0.026 | IRAK-1-4 Inhibitor I 0.024

SLC1A4 (UniProt P43007)
inactive: erlotinib 0.004 | [1] -0.018 | [2] 0.041 | [3] 0.005 | [4] 0.001 | [5] -0.023 | [6] -0.024 | [7] -0.015 | [8] -0.008 | IRAK-1-4 Inhibitor I -0.015

SERPINF1 (UniProt P36955)
inactive: erlotinib -0.108 | [1] 0 | [2] 0.089 | [3] 0.034 | [4] -0.001 | [5] -0.01 | [6] 0.057 | [7] -0.075 | [8] -0.01 | IRAK-1-4 Inhibitor I 0.022

SHMT1 (UniProt P34896)
inactive: erlotinib 0.005 | [1] -0.007 | [2] 0.012 | [3] -0.016 | [4] 0.006 | [5] -0.023 | [6] -0.013 | [7] 0.028 | [8] 0.013 | IRAK-1-4 Inhibitor I 0.014

SHFL (UniProt Q9NUL5)
inactive: erlotinib -0.009 | [1] -0.031 | [2] 0.055 | [3] 0.124 | [4] 0.035 | [5] 0.013 | [6] -0.005 | [7] -0.021 | [8] 0.02 | IRAK-1-4 Inhibitor I -0.03

SF1 isoform 5 (UniProt Q15637)
inactive: erlotinib -0.018 | [1] -0.023 | [2] 0.036 | [3] -0.023 | [4] 0.007 | [5] -0.077 | [6] -0.007 | [7] -0.009 | [8] -0.024 | IRAK-1-4 Inhibitor I 0.007

SERPINC1 (UniProt P01008)
inactive: erlotinib -0.03 | [1] -0.075 | [2] 0.038 | [3] -0.025 | [4] 0.046 | [5] 0.124 | [6] -0.026 | [7] 0.054 | [8] 0.032 | IRAK-1-4 Inhibitor I -0.055

SGO1 (UniProt Q5FBB7)
inactive: erlotinib 0.057 | [1] -0.075 | [2] -0.011 | [3] 0.024 | [4] -0.024 | [5] -0.004 | [6] -0.044 | [7] 0.007 | [8] 0.032 | IRAK-1-4 Inhibitor I -0.005

SHKBP1 (UniProt Q8TBC3)
inactive: erlotinib -0.005 | [1] -0.064 | [2] 0.058 | [3] 0.004 | [4] 0.011 | [5] 0.01 | [6] -0.018 | [7] 0.076 | [8] 0.189 | IRAK-1-4 Inhibitor I 0.022

SKA1 (UniProt Q96BD8)
inactive: erlotinib -0.029 | [1] -0.015 | [2] 0.029 | [3] 0.072 | [4] -0.062 | [5] 0.065 | [6] -0.06 | [7] 0.02 | [8] -0.094 | IRAK-1-4 Inhibitor I 0.013

SERPINB6, A0A087X1N8
inactive: erlotinib -0.003 | [1] -0.003 | [2] 0.032 | [3] 0.014 | [4] -0.013 | [5] -0.012 | [6] -0.007 | [7] 0.001 | [8] 0.018 | IRAK-1-4 Inhibitor I 0.016

SGTA (UniProt O43765)
inactive: erlotinib -0.007 | [1] -0.038 | [2] 0.034 | [3] 0.004 | [4] -0.006 | [5] 0.019 | [6] 0.032 | [7] 0.03 | [8] 0.023 | IRAK-1-4 Inhibitor I -0.007

SERGEF (UniProt Q9UGK8)
inactive: erlotinib 0.082 | [1] 0.11 | [2] 0.03 | [3] 0.041 | [4] -0.029 | [5] 0.063 | [6] 0.131 | [7] -0.025 | [8] 0.017 | IRAK-1-4 Inhibitor I 0.002

SF3B1 (UniProt O75533)
inactive: erlotinib -0.006 | [1] -0.05 | [2] -0.018 | [3] 0.022 | [4] -0.001 | [5] -0.013 | [6] -0.01 | [7] -0.009 | [8] 0.007 | IRAK-1-4 Inhibitor I -0.002

SH3GL1 (UniProt Q99961)
inactive: erlotinib -0.009 | [1] 0.016 | [2] -0.022 | [3] -0.004 | [4] -0.008 | [5] 0.001 | [6] -0.003 | [7] -0.027 | [8] 0.006 | IRAK-1-4 Inhibitor I -0.017

SH3BP5L (UniProt Q7L8J4)
inactive: erlotinib 0.001 | [1] -0.156 | [2] 0.004 | [3] -0.058 | [4] -0.032 | [5] 0.003 | [6] 0.065 | [7] -0.019 | [8] 0 | IRAK-1-4 Inhibitor I 0

SH3BP1 (UniProt Q9Y3L3)
inactive: erlotinib 0.005 | [1] -0.041 | [2] 0.034 | [3] -0.022 | [4] -0.03 | [5] 0.003 | [6] -0.008 | [7] 0.004 | [8] 0.004 | IRAK-1-4 Inhibitor I 0.028

SF3B3 (UniProt Q15393)
inactive: erlotinib -0.012 | [1] -0.002 | [2] 0 | [3] -0.025 | [4] 0.003 | [5] 0.01 | [6] -0.005 | [7] 0.009 | [8] 0.005 | IRAK-1-4 Inhibitor I 0.03

2 consecutive entries from above, for reference:
SERPINF1 (UniProt P36955)
inactive: erlotinib -0.108 | [1] 0 | [2] 0.089 | [3] 0.034 | [4] -0.001 | [5] -0.01 | [6] 0.057 | [7] -0.075 | [8] -0.01 | IRAK-1-4 Inhibitor I 0.022

SHMT1 (UniProt P34896)
inactive: erlotinib 0.005 | [1] -0.007 | [2] 0.012 | [3] -0.016 | [4] 0.006 | [5] -0.023 | [6] -0.013 | [7] 0.028 | [8] 0.013 | IRAK-1-4 Inhibitor I 0.014

Further results

SH3BGR (UniProt P55822)
inactive: erlotinib 0.03 | [1] -0.008 | [2] 0.04 | [3] -0.02 | [4] 0.011 | [5] -0.018 | [6] 0.029 | [7] 0.014 | [8] 0 | IRAK-1-4 Inhibitor I 0.027

SGK3 (UniProt Q96BR1)
inactive: erlotinib -0.396 | [1] 0.147 | [2] 0.152 | [3] 0.042 | [5] 0.194 | [6] 0.141 | IRAK-1-4 Inhibitor I -0.051

SLC12A9 (UniProt Q9BXP2)
inactive: erlotinib -0.033 | [1] -0.019 | [2] 0.02 | [3] -0.005 | [4] 0.036 | [5] 0.095 | [6] -0.028 | IRAK-1-4 Inhibitor I 0.01

SLC17A5 (UniProt Q9NRA2)
inactive: erlotinib -0.039 | [1] 0.135 | [2] 0.053 | [3] 0.087 | [4] -0.053 | [5] -0.044 | [6] 0.099 | [7] -0.13 | [8] 0.04 | IRAK-1-4 Inhibitor I 0.141

SLC18B1 (UniProt Q6NT16)
inactive: erlotinib -0.011 | [1] 0.065 | [2] -0.002 | [3] 0.001 | [5] -0.023 | [6] -0.017 | IRAK-1-4 Inhibitor I 0.054

SETD2 (UniProt Q9BYW2)
inactive: erlotinib 0.08 | [1] 0.188 | [2] 0.126 | [3] -0.084 | [4] -0.14 | [5] 0.011 | [6] 0.088 | [7] -0.003 | [8] -0.012 | IRAK-1-4 Inhibitor I 0.042

SLC15A4 (UniProt Q8N697)
inactive: erlotinib 0.024 | [1] 0.152 | [2] -0.08 | [3] 0.114 | [4] -0.006 | [6] -0.167 | [7] -0.058 | [8] 0.05
